This data set has as its target T1, p63-DBD L210R L249R (UniProt Q9H3D4).
T1 sequence (looked up): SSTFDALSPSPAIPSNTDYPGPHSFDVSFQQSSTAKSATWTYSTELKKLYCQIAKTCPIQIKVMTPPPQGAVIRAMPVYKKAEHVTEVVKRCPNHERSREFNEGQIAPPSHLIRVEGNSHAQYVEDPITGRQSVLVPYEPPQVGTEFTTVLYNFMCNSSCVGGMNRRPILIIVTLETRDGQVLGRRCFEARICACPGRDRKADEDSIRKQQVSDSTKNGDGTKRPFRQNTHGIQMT
Kind of data set: fluorescence polarization. The conditions noted are these: FP: 100 nM 5'-fluorescein dsDNA, 10 mM sodium phosphate pH 7.2, 1 mM DTT, temperature not stated; recombinant protein; residues 153-388; label: 5'-fluorescein.

For at least one entry, the source does not settle the construct or the ends of the probe. A weaker result is weaker than the reference pair of the same experiment. At least one verdict was read from the data and is not stated in words by the source. Where a protein sequence is shown, tags need not be part of it.

For the sequence “TTAGGACATGTCCATC (double strand) [con2 x 5 (FP)]”, the binding result is listed as “binds more weakly”.

(Values after article PMC4880913.)
